No constants are given. Whether binding was seen depends on the method and setting. In cells and extracts the contact can be indirect. A yes stands for co-enrichment or nearness to the bait. Other partners may have been found. For some assays here: A no says only that the protein was not detected with the bait.
Legend:
[1] = target: T1, CD6 pY629 peptide (biotin-SSGEWpYQNFQP) (human); experiment: affinity purification with mass spectrometry; biotinylated peptide (50 μg) on Dynabeads M-280 streptavidin, multivalent; lysates of Jurkat T cells stimulated with ionomycin and PMA for 24 h; 18 h at 4°C; washed with 0.1% Triton X-100 in PBS; only the target purified
T1 sequence (peptide, biotin on the N-terminus; phosphotyrosine at Y629): SSGEWYQNFQP

[2] = target: T2, control peptide (biotin-…); experiment: as above
T2 sequence (peptide, biotin on the N-terminus): HVDNEYSQPPRNS

- binding [1]: binds
- binding [2]: no binding
B1: GRB2-related adaptor downstream of Shc (GADS), endogenous (protein, UniProt O75791 1-330)
chain: MEAVAKFDFTASGEDELSFHTGDVLKILSNQEEWFKAELGSQEGYVPKNFIDIQFPKWFHEGLSRHQAENLLMGKEVGFFIIRASQSSPGDFSISVRHEDDVQHFKVMRDNKGNYFLWTEKFPSLNKLVDYYRTNSISRQKQIFLRDRTREDQGHRGNSLDRRSQGGPHLSGAVGEEIRPSMNRKLSDHPPTLPLQQHQHQPQPPQYAPAPQQLQQPPQQRYLQHHHFHQERRGGSLDINDGHCGTGLGSEMNAALMHRRHTDPVQLQAAGRVRWARALYDFEALEDDELGFHSGEVVEVLDSSNPSWWTGRLHNKLGLFPANYVAPMTR
